Hit rate of the full screen: of about 94,000 compounds, about 280 (0.3%) were called active. Inconclusive means that the source gave no clear call. Such entries were picked first, then a sample of the others.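 How the source made its calls: active means activation above 40%, about the mean plus 3 SD, also judged a hit on visual image review; inconclusive means activation above 40% but not a hit on visual review; inactive means activation not above 40% and no visual hit.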
experiment: enhancers of NFkB p65 translocation in HUVEC – imaging, IL-1B stimulus, high-content imaging, primary screen (AID 819); details: HUVEC IL-1B NFkB p65 nuclear translocation imaging; at 2 µM; stronger effect = higher value;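 further: percent activation is computed from the nuclear over cytoplasmic p65 intensity ratio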

SMILES | activation
COc1ccc(-c2noc(CCC(=O)N(C)c3cccc(C)c3)n2)cc1 | inactive: 1.83%
Cc1cccc(N(C(=O)c2sc(C)nc2C)C(C(=O)NCc2ccco2)c2ccccc2)c1 (stereo unspecified) | active: 47.4%
Cc1noc(NS(=O)(=O)c2ccc(NC(=O)CSc3ncccn3)cc2)c1C | inconclusive: 45.8%
CCOC(=O)N1CCC(NC(=O)C2CCN(C(=O)N3CC(C)Oc4ccc(C)cc43)CC2)CC1 (stereo unspecified) | inactive: -50.5%
Cc1cc(N2CCN(C)CC2)nc2ccc(NC(=O)c3cccnc3Cl)cc12 | inactive: -3.86%
CCCOc1ccccc1C1CC(=O)NC(C)=C1C(=O)OCC(C)C (stereo unspecified) | inconclusive: 79.2%
COCCCn1c(Cc2csc(Nc3cccc(Cl)c3)n2)nnc1SCC(=O)OC | inconclusive: 43.6%
O=C(COc1ccc(Br)cc1)NCc1ccccn1 | active: 40.9%
Cc1ccccc1-c1nc2cc(Cl)ccc2o1 | inactive: -0.32%
COC(=O)c1c(NC(=O)c2ccc(S(=O)(=O)N3CCOCC3)cc2)sc2c1CCN(C)C2 | inactive: 11.4%
O=C(Cn1cnc2ccccc2c1=O)NCCC(=O)Nc1ccc2c(c1)OCCO2 | inconclusive: 55.3%
O=C(Oc1ccc2c3c(c(=O)oc2c1)CCCC3)c1ccco1 | inconclusive: 80.5%
Cc1ccc(/C=C2\SC(=S)N(c3c(C)n(C)n(-c4ccccc4)c3=O)C2=O)cc1 | inactive: 0.43%
O=C(c1ccc2ccccc2c1)N1CCN(c2ccc([N+](=O)[O-])c(N3CCOCC3)c2)CC1 | active: 44.9%
CN(C(=O)COc1nnc(-c2cccs2)c(-c2cccs2)n1)c1ccccc1 | inconclusive: 50.4%
CCS(=O)(=O)N1CCC(C(=O)NCCc2ccc(OC)c(OC)c2)CC1 | inconclusive: 40.2%
COc1cccc(C2CC(c3ccccc3OC)n3nc(N)nc3N2)c1 (stereo unspecified) | inactive: 8.35%
CCS(=O)(=O)N1CCN(C(=O)c2cccs2)CC1 | inconclusive: 45.6%
CC1=C(C(=O)OC(C)C)C(c2cccs2)N2C(=O)CCSC2=N1 (stereo unspecified) | inconclusive: 54.2%
CCNc1nc(N)c(C(=O)c2ccc(Cl)s2)s1 | inconclusive: 56.7%
Cc1cc(NC(=O)CCCSc2nc(-c3ccco3)cc(C(F)(F)F)n2)n(-c2ccccc2)n1 | inconclusive: 43.8%
CSc1nc2nccc(-c3ccc(Oc4ccccc4)cc3)n2n1 | inactive: 10.5%
COc1ccc(/C=N/NC(=O)CCc2c(C)n[nH]c2C)cc1O | active: 55.1%

SMILES | activation
C/C(N)=C(/C#N)C(=O)COC(=O)c1ccc(C)c(S(=O)(=O)N2CCCCC2)c1 | active: 42.3%
O=C1Nc2cc3c(cc2Sc2ccccc21)OCCO3 | inconclusive: 42.7%
COc1ccccc1NC(=O)N(c1c(N)n(Cc2ccccc2)c(=O)[nH]c1=O)C1CCCC1 | inconclusive: 43.4%
CCOC(=O)c1ccccc1NC(=O)N1CCn2c(C)ccc2C1CC (stereo unspecified) | inactive: -1.08%
COc1ccc(OC)c(S(=O)(=O)N2CCC(C(=O)Nc3ccc(C)c(C)c3)CC2)c1 | inactive: 11.6%
O=C1CC(c2ccco2)CC2=C1C=Nc1ccccc1N2 (stereo unspecified) | inactive: 14.1%
O=c1cc(N2CCN(c3ccccc3)CC2)[nH]c(=O)n1-c1ccccc1Cl | inconclusive: 40.3%
CC(C)(C)NC(=O)C(c1cccs1)N(CC1CCCO1)C(=O)Cn1nnc(-c2cccs2)n1 (stereo unspecified) | active: 47.6%
Cn1c(SCc2ccc(Cl)cc2Cl)nc(C(F)(F)F)cc1=O | active: 43.7%
COc1cccc(OC)c1C(=O)N1CCN(S(=O)(=O)c2ccc(C)cc2)CC1 | inactive: -32.3%
CCOc1ccccc1NC(=O)Cn1c(C)cc(COC)c(C#N)c1=O | inconclusive: 41.7%
COC(=O)c1cc(NC2c3ccccc3C(=O)N2CCN2CCOCC2)cc(C(=O)OC)c1 (stereo unspecified) | inactive: 11.2%
O=C(Nc1nc2nc(-c3ccccc3)cc(-c3ccccc3)n2n1)c1ccco1 | inactive: 26.5%
O=C(N1CCCC1)n1c(Cc2ccccc2)nc2ccccc21 | inconclusive: 46.1%
COc1ccccc1CNC(=O)CN(c1ccc(C)cc1)S(=O)(=O)c1c(C)nn(C)c1C | inconclusive: 47.5%
O=C(NCc1ccccn1)C(F)(F)C(F)(F)C(=O)NCc1ccccn1 | inactive: 5.42%
Cc1cc(C(=O)OCC(=O)c2cccc([N+](=O)[O-])c2)c2cccc(C)c2n1 | inconclusive: 44.8%
CCOc1ccc2nc(NS(=O)(=O)Cc3ccccc3)sc2c1 | inconclusive: 42.1%
Nc1cc(=O)[nH]c(=S)n1-c1cccc(C(F)(F)F)c1 | inactive: -9.66%
O=C(O)C(Cc1ccccc1)N1Cc2ccccc2C1=O (stereo unspecified) | active: 40.2%
O=C(O)CN1CCN(Cc2ccc(F)cc2Cl)C1=O | inconclusive: 82.9%
CC1CN(Cc2ccc(C#N)cc2Cl)CC(C)O1 (stereo unspecified) | inconclusive: 51%
COc1ccccc1NC(=O)CSc1nnnn1-c1ccc(C)cc1 | active: 41.4%

SMILES | activation
Cc1ccc(S(=O)(=O)NCC(=O)NC2CCCCCC2)cc1 | inconclusive: 43.6%
CC(C)[C@H](NC(=O)NCc1cccs1)C(=O)O | inconclusive: 40.7%
Cc1onc(-c2c(F)cccc2Cl)c1C(=O)Nc1sc2c(c1C#N)CCC(C(C)(C)C)C2 (stereo unspecified) | inactive: -0.23%
COC(=O)c1cc2n(n1)CCN(Cc1ccc(OC)cc1)C2=O | inconclusive: 49.7%
O=C(O)C1CSC(c2ccccc2)N1C(=O)c1ccco1 (stereo unspecified) | inactive: -0.25%
CCn1nnnc1-c1ccc(OC)c(S(=O)(=O)Nc2ccc(C(=O)OC)cc2)c1 | inactive: -0.55%
CCN(CC)CC#CCC1(O)c2ccccc2-c2ccccc21 | inconclusive: 55.8%
Cc1cc(C(=O)COC(=O)CN(C)S(=O)(=O)c2ccc(Cl)cc2)c(C)n1Cc1cccs1 | inactive: 2.02%
Cc1ccc2c(c1)nnn2C1CCN(CC(=O)N2c3ccccc3CC2C)CC1 (stereo unspecified) | inconclusive: 40.5%
CCCCN(C(=O)NC(=O)Nc1cccc(C)c1C)S(C)(=O)=O | inactive: 1.26%
COc1ccc(/C=N/n2c(SC)nnc(C(C)(C)C)c2=O)cc1OC | inconclusive: 44%
c1ccc(-n2c(SCC3CCCCO3)nnc2-c2cnccn2)cc1 (stereo unspecified) | inconclusive: 55.8%
CCOC(=O)c1c(C)[nH]c2c1cc(O)c1ccccc12 | inconclusive: 42%
O=C(c1ccco1)n1c(=S)nc2ccccn21 | inconclusive: 45.1%
COc1ccc(-n2c(C)cc(C(=O)Cn3c(NCCO)nc4ccccc43)c2C)cc1 | active: 41%
O=c1cc(CSc2nnc(-c3cccs3)n2Cc2ccccc2)nc2sc3ccccc3n12 | inactive: 0.62%
CCN1CCN(CCCNC(=O)c2cc3sccc3n2CC)CC1 | inconclusive: 40.2%
O=C(NCc1cccnc1)C1CCN(S(=O)(=O)N2CCC3(CC2)OCCO3)CC1 | inconclusive: 53.1%
Cc1ccc(NC(=O)COC(=O)CCC(=O)c2cccs2)cc1S(=O)(=O)N1CCOCC1 | active: 48%
O=C(CCC(=O)N(CC(=O)NC1CCCC1)C1CCCC1)Nc1ccccn1 | active: 127%
CCOc1ccc(N/C(C)=C/C(=O)c2ccc(C)o2)cc1 | inactive: 5.03%
CCOC(=O)c1csc(NC(=O)c2cc(OC)c(OC)c(OC)c2)n1 | inconclusive: 41.3%
Cc1nn(C(=O)c2cccnc2)c(C)c1C | inconclusive: 44.7%

SMILES | activation
Cc1cc(=O)oc(C)c1C(=O)NCCC1=CCCCC1 | inactive: 19.4%
O=S(=O)(c1ccc(Cl)s1)N1CCN(C/C=C/c2ccccc2)CC1 | inconclusive: 41%
CCC(=O)N1CCc2cc(S(=O)(=O)NC(C(=O)NCc3ccc(C)cc3)C(C)C)ccc21 (stereo unspecified) | inconclusive: 70.5%
Cc1cc(-c2c(C)n([O-])c(C)c(C)[n+]2=O)ccc1F | inconclusive: 44.5%
COc1ccc(N2CCN(c3nc(NCCc4ccc(OC)c(OC)c4)nc(OC)n3)CC2)cc1 | inactive: 4.31%
CC(C)(C)C1CCC2(CC1)NC(CO)(CO)CO2 (stereo unspecified) | inconclusive: 47.8%
Cc1nc2sc(C(c3ccc(F)cc3)N3CCOCC3)c(O)n2n1 (stereo unspecified) | inconclusive: 41.8%
CN=C(NC)SC1CC(=O)N(c2ccccc2)C1=O (stereo unspecified) | inconclusive: 79.3%
Cc1nnc(SCCCn2c(N3CCN(c4ccccc4)CC3)nc3c2c(=O)[nH]c(=O)n3C)s1 | inconclusive: 40.1%
CCOC(=O)c1cc2c(=O)n3ccccc3nc2n(CCCOC)c1=NC(=O)c1cccnc1 | active: 44.4%
CCOC(=O)c1c(N)c(C#N)cn1-c1ccccc1 | inactive: 17.6%
CCc1ccccc1N1CCN(S(=O)(=O)c2ccc(F)c(C)c2)CC1 | inconclusive: 51.4%
NS(=O)(=O)c1ccc(CCNC(=O)c2cccnc2)cc1 | inactive: 15.5%
Cc1ccccc1NC(=O)CN1C(=O)S/C(=C\c2cccn2-c2cccc(C(=O)O)c2)C1=O | inactive: -0.1%
COc1ccc2cc3cc(C(=O)NCCN4CCN(c5ccccc5F)CC4)oc3nc2c1 | active: 44.9%
CCCCCc1cc(O)c2c(C)cc(=O)oc2c1 | inactive: -1.18%
Cc1ccc2nc3sc(C(=O)N4CCOCC4)c(N)c3cc2c1 | inactive: -4.25%
CCOc1ccc(C2=Nn3c(nnc3-c3ccccc3OC)SC2)cc1 | inactive: -5.24%
COC(=O)CN(c1cccc(F)c1)S(C)(=O)=O | active: 71.2%
CCCNC(=O)NC(=O)CSc1nnc(-c2ccncc2)n1CC | inconclusive: 83.5%
C/C(=N/NS(=O)(=O)c1ccc(Cl)cc1)c1cccc(NC(=O)c2ccc(Cl)cc2Cl)c1 | inactive: 27.3%
Cc1oc2ccc(O)cc2c1C(=O)OC(C)C | inconclusive: 41.2%

Looked up by structure from the list above (5):
SMILES | activation
C/C(=N/NS(=O)(=O)c1ccc(Cl)cc1)c1cccc(NC(=O)c2ccc(Cl)cc2Cl)c1 | inactive: 27.3%
Cc1oc2ccc(O)cc2c1C(=O)OC(C)C | inconclusive: 41.2%
CCOc1ccc(C2=Nn3c(nnc3-c3ccccc3OC)SC2)cc1 | inactive: -5.24%
Cc1cc(=O)oc(C)c1C(=O)NCCC1=CCCCC1 | inactive: 19.4%
CC(C)(C)C1CCC2(CC1)NC(CO)(CO)CO2 (stereo unspecified) | inconclusive: 47.8%
